Test results reported in publication PMC3324469, “Preparation and Characterization of the Extracellular Domain of Human Sid-1” (PLoS ONE, 2012).
No constants are given. Whether binding was seen depends on the method and setting. In cells and extracts the contact can be indirect. Binding can be weak; no strength is given.

Sequences of proteins named here, by UniProt entry; tags and fusion partners are left off. A change or cut given only in a name is not applied to a line headed by its entry.
UniProt Q9NXL6: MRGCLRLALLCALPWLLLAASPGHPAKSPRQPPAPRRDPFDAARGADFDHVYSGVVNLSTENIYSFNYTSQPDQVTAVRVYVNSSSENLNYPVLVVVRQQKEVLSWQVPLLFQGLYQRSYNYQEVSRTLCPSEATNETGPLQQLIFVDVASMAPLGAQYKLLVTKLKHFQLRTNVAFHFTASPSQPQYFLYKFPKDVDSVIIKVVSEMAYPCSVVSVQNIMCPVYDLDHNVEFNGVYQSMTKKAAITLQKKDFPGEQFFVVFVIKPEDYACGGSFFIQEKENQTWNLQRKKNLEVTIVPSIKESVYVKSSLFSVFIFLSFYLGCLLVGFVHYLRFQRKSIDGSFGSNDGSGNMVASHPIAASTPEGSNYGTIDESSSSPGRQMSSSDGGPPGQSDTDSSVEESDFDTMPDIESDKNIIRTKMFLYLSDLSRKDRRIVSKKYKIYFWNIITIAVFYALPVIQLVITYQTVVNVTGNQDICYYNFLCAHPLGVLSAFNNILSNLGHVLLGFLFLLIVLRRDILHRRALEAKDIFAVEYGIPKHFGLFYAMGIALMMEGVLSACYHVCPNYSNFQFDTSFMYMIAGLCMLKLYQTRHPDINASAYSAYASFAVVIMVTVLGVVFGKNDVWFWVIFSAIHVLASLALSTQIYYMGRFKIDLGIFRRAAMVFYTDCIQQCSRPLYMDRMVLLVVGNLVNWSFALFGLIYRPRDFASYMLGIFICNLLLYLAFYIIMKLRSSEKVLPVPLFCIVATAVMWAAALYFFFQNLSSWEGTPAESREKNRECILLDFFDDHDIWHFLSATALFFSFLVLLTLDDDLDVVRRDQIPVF
UniProt Q8NBJ9: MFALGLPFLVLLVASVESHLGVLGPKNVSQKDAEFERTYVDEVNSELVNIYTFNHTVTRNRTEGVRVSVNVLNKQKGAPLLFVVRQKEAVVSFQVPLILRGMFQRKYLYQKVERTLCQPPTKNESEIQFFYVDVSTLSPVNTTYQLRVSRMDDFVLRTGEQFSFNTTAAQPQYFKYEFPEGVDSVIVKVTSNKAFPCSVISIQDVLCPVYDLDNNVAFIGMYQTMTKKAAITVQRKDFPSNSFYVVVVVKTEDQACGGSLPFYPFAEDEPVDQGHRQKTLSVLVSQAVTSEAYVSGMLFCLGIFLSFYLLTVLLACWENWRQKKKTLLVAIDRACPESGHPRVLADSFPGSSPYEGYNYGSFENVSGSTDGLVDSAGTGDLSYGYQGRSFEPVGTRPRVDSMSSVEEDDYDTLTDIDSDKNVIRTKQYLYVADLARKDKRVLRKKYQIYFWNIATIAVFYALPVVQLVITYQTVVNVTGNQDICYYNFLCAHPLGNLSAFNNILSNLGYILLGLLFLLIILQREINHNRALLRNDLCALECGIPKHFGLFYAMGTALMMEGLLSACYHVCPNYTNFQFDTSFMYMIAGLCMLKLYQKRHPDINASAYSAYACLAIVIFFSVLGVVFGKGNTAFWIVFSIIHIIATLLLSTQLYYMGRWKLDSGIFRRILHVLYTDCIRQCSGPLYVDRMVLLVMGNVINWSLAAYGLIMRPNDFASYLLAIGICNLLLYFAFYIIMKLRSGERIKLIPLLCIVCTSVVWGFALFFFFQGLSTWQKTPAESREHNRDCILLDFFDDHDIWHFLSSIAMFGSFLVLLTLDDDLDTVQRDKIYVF
UniProt Q9GZC8: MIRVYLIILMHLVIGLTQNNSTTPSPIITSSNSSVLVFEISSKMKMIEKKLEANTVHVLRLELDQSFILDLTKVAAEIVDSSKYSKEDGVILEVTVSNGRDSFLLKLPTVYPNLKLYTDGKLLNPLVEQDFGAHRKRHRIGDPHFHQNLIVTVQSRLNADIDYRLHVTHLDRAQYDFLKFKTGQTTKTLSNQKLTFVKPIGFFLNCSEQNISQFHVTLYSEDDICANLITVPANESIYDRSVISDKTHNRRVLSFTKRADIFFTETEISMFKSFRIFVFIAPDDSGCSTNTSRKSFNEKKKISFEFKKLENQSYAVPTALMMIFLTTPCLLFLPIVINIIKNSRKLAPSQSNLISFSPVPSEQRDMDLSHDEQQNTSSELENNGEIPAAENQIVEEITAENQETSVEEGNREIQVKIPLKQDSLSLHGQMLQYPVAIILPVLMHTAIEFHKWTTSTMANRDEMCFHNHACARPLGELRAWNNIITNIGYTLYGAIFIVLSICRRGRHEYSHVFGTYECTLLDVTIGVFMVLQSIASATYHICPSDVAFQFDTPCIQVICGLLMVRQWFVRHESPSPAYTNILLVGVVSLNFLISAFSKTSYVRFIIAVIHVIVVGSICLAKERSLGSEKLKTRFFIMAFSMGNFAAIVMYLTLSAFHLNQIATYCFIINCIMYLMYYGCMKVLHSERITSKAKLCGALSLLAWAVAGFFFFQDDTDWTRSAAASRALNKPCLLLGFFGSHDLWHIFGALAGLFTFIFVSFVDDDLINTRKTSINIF
UniProt P0A6F5: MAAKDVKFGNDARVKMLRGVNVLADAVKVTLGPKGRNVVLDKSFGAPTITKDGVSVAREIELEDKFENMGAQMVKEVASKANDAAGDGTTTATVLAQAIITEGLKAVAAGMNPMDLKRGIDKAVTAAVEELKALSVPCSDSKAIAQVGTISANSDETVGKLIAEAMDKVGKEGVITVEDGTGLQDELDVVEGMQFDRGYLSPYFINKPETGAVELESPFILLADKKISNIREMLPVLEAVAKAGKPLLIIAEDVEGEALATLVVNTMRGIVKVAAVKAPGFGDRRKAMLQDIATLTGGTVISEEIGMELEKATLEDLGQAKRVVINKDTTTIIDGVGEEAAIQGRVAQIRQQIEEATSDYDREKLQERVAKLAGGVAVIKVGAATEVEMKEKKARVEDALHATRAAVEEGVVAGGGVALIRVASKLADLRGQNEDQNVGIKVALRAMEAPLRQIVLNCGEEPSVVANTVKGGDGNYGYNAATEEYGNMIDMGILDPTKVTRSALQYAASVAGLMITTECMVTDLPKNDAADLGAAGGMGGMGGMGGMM

How the values were obtained:
Assay in all cases: co-purification; MBP-ECD fusions expressed in E. coli and purified; GroEL of the host found with them
[1] = target: MBP fusion of the ECD of human SidT1 (AAI17223), made in E. coli (human) (UniProt Q9NXL6)
[2] = target: MBP fusion of the ECD of human SidT2 (AAI14523), made in E. coli (human) (UniProt Q8NBJ9)
[3] = target: MBP fusion of the ECD of C. elegans Sid-1 (NP_504372), made in E. coli (C. elegans) (UniProt Q9GZC8)

Measured: binding

chaperone GroEL (from UniProt P0A6F5 1-548)
binds: all assays above
